Laboratory results taken from article PMC12045374.
Results are given in words; binding and its absence hold for the method and conditions named. Binding seen in cells or lysates may run through a third protein. Some entries that bind do so weakly or less than the wild type.

Sequences of proteins named here, by UniProt entry; tags and fusion partners are left off.
UniProt P18615: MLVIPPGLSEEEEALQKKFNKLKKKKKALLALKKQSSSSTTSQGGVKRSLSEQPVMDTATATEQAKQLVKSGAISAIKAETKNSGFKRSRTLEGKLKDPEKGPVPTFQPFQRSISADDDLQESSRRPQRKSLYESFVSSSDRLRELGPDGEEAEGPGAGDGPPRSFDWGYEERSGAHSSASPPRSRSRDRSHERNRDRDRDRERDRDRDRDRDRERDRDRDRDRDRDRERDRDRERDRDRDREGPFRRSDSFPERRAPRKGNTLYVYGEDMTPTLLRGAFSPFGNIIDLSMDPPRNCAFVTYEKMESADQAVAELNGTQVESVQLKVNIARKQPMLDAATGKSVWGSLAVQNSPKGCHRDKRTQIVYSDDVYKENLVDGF
UniProt Q12824: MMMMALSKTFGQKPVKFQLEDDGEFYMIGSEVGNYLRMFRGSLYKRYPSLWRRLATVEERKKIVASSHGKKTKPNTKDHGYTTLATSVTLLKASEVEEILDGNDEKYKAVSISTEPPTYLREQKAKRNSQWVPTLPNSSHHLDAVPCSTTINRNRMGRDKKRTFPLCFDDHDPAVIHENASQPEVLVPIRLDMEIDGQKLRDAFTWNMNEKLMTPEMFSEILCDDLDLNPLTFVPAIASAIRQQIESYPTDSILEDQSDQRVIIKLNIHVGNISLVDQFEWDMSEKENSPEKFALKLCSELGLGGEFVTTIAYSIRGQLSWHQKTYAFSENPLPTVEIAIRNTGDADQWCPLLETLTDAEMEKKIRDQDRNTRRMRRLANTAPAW

Experiments:
[1] = target: Negative Elongation Factor E (NELFE) (human (endogenous in Hep3B, Huh1, HLE and HCC patient tissue)) (UniProt P18615); assay: proximity ligation; HCC patient tissue microarrays (FFPE); SMARCB1 and NELFE antibodies; foci/nuclei counted, NELFE-High against NELFE-Low subgroup
[2] = target: eNELFE-eGFP (endogenous NELFE tagged with eGFP at the C terminus by CRISPR/Cas9 HDR knock-in) (human (endogenous locus in HCC cell lines)) (UniProt P18615); assay: co-IP; SMARCB1 and NELFE, both directions, in WT eNE-eGFP and eNEΔLCS1-eGFP cells, immunoblot
[3] = target: Negative Elongation Factor E (NELFE) (human (endogenous in Hep3B, Huh1, HLE and HCC patient tissue)) (UniProt P18615); assay: co-IP; endogenous SMARCB1 and NELFE, both directions, three HCC cell lines, immunoblot
[4] = target: eNELFE-eGFP (endogenous NELFE tagged with eGFP at the C terminus by CRISPR/Cas9 HDR knock-in) (human (endogenous locus in HCC cell lines)) (UniProt P18615); assay: proximity ligation; in situ in eNE-eGFP knock-in HCC cells (HLE in Figure 6I), WT and ΔLCS1 mutant; SMARCB1 and GFP antibodies; foci/nuclei counted

Measured: binding

SMARCB1 (from UniProt Q12824 1-385)
binds: all assays above
